Reference: PubChem BioAssay AID1259254 (NCATS, 2017)
Purpose: 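Finding genes that stop cells copying their DNA twice in one cycle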 (primary screen). System: human HCT116 colorectal cancer cells. Reagents: single siRNA against human genes. Timing: 3 days. Read-out: 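Imaged Hoechst DNA stain sorts each cell into a cycle phase by DNA amount; per plate, G2 fraction set to 0% for non-targeting and 100% for GMNN siRNA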. Direction: G2 robust z-score: higher = more G2 cells, more excess DNA replication. Hit rule: 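An siRNA counts as active if its G2 robust z-score lies at least 5 MADs above the screen median; here such calls match roughly 38% of GMNN control or more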.
The deposit covers about 59,000 reagents; below is a random part of them. About 1,550 of them (2.6%) count as active. 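G2 share is only a proxy for re-replication; each gene was hit by three separate siRNAs, and active genes were retested.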 Unmarked entries are inactive. The numbers tell different reagents against one gene apart. Not all columns of the deposit are shown. No sequences are given here. Not given: the amount of reagent.

{"Gene": "OCM", "siRNA no.": 1, "G2 robust z-score": -0.658}
{"Gene": "OCM", "siRNA no.": 2, "G2 robust z-score": -1.2}
{"Gene": "OCM", "siRNA no.": 3, "G2 robust z-score": -0.375}
{"Gene": "ITGA1", "siRNA no.": 1, "G2 robust z-score": -0.621}
{"Gene": "ITGA1", "siRNA no.": 2, "G2 robust z-score": -0.809}
{"Gene": "ITGA1", "siRNA no.": 3, "G2 robust z-score": 0.0246}
{"Gene": "YIPF6", "siRNA no.": 1, "G2 robust z-score": -0.601}
{"Gene": "YIPF6", "siRNA no.": 2, "G2 robust z-score": 3.2}
{"Gene": "YIPF6", "siRNA no.": 3, "G2 robust z-score": 0.242}
{"Gene": "RNF114", "siRNA no.": 1, "G2 robust z-score": 0.124}
{"Gene": "RNF114", "siRNA no.": 2, "G2 robust z-score": 1.3}
{"Gene": "RNF114", "siRNA no.": 3, "G2 robust z-score": -0.932}
{"Gene": "ST3GAL2", "siRNA no.": 1, "G2 robust z-score": -0.0222}
{"Gene": "ST3GAL2", "siRNA no.": 2, "G2 robust z-score": "6.32 (active)"}
{"Gene": "ST3GAL2", "siRNA no.": 3, "G2 robust z-score": 0.756}
{"Gene": "TMEM40", "siRNA no.": 1, "G2 robust z-score": 0.131}
{"Gene": "TMEM40", "siRNA no.": 2, "G2 robust z-score": -0.291}
{"Gene": "TMEM40", "siRNA no.": 3, "G2 robust z-score": -0.539}

Reprinted from above, 2 entries:
{"Gene": "RNF114", "siRNA no.": 2, "G2 robust z-score": 1.3}
{"Gene": "RNF114", "siRNA no.": 3, "G2 robust z-score": -0.932}
